Measured values: article PMC9402538 (Nature Communications, 2022)
Some peptides are written in HELM: one residue between dots, names in brackets for other building blocks, links after the first $.

Assay: general procedure: Fmoc solid-phase peptide synthesis; Fmoc-Amide AM Resin (0.35 mmol/g, 572mg) for peptides; Rink Amide-MBHA resin (0.646 mmol/g, 100mg) for tracers; HBTU or PyBOP with DIPEA (peptides); DIC/HOBt (tracers)
Settings: whole synthesis; for final HPLC purity: analytical RP-HPLC

| Substance | isolated yield [%] | final HPLC purity [%] |
| --- | --- | --- |
| PEPTIDE1{[cPentCO].A.G.E.S.L.Y.E.[am]}$$$$V2.0 | 12 | 98.2 |
| PEPTIDE1{[ac].[gAA_Leu_Ms].[gAA_Phe_Ms].[gAA_Glu_ClPhS].[gAA_Trp_Ms].[gAA_Lys_Ms].[gAA_Leu_iBuS].[gAA_Ala_Ms].[am]}$$$$V2.0 | 23.2 | 99.0 |
| PEPTIDE1{[Picolinoyl].A.G.E.S.L.Y.E.[am]}$$$$V2.0 | 14 | 98.5 |
| PEPTIDE1{[Furan-2-CO].A.G.E.S.L.Y.E.[am]}$$$$V2.0 | 11.6 | 98.5 |
| PEPTIDE1{[4MeOBz].A.G.E.S.L.Y.[Phe4tBu].[am]}$$$$V2.0 | 13.3 | 98.3 |
| PEPTIDE1{[iNic].A.G.E.S.L.Y.E.[am]}$$$$V2.0 | 14.3 | 98.2 |
| PEPTIDE1{[NMePyrrole2CO].A.G.E.S.L.Y.E.[am]}$$$$V2.0 | 12 | 98.3 |
| PEPTIDE1{[4MeOBz].A.G.E.S.L.Y.[Bpa].[am]}$$$$V2.0 | 9.8 | 98.1 |
| PEPTIDE1{[Bz].A.G.E.S.L.Y.E.[am]}$$$$V2.0 | 12.6 | 98.8 |
| PEPTIDE1{[4MeOBz].A.G.E.S.L.Y.E.[am]}$$$$V2.0 | 12.7 | 98.6 |
| PEPTIDE1{[4MeOBz].A.G.E.S.[hLeu].Y.E.[am]}$$$$V2.0 | 13 | 98.6 |
| PEPTIDE1{[4MeOBz].A.G.E.S.[cPrAla].Y.E.[am]}$$$$V2.0 | 12.8 | 98.4 |
| PEPTIDE1{[3-MPA].A.G.E.S.L.Y.E.[am]}$$$$V2.0 | 12 | 98.6 |
| PEPTIDE1{[Pyrrole2CO].A.G.E.S.L.Y.E.[am]}$$$$V2.0 | 11.6 | 98.5 |
| PEPTIDE1{[1-AdCO].A.G.E.S.L.Y.E.[am]}$$$$V2.0 | 15 | 98.7 |
| PEPTIDE1{[4MeOBz].A.G.E.S.[cPenAla].Y.E.[am]}$$$$V2.0 | 13.5 | 98.1 |
| PEPTIDE1{[Nicotinoyl].A.G.E.S.L.Y.E.[am]}$$$$V2.0 | 12.6 | 98.1 |
| PEPTIDE1{[Acryloyl].A.G.E.S.L.Y.E.[am]}$$$$V2.0 | 12 | 98.1 |
| PEPTIDE1{[Thiazole-5-CO].A.G.E.S.L.Y.E.[am]}$$$$V2.0 | 15.1 | 98.7 |
| PEPTIDE1{[cHexCO].A.G.E.S.L.Y.E.[am]}$$$$V2.0 | 16 | 98.8 |
| PEPTIDE1{[4-MeBz].A.G.E.S.L.Y.E.[am]}$$$$V2.0 | 11.8 |  |
| PEPTIDE1{[4MeOBz].A.G.E.S.[Cha].Y.E.[am]}$$$$V2.0 | 13.2 | 98.4 |
| (4S,7S,10S,13S,16S)-4-carbamoyl-7-(4-hydroxybenzyl)-13-(hydroxymethyl)-10-isobutyl-6,9,12,15-tetraoxo-16-(2-((S)-2-(thiop-hene-2-carboxamido)propanamido)acetamido)-5,8,11,14-tetraazanonadecanedioic acid | 12.5 | 98.4 |
